# Experimental data: PubChem BioAssay AID1508600 (Functional Genomics Laboratory (NCATS/FGL), 2020)
# In all, about 53,000 sequences went through this assay and about 3,700 (7%) were called active.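 How the source made its calls: active means gene knockdowns whose robust z-score for IL-1 alpha signal is at least 2 or at most -2, so actives lie on both sides; inactive means the rest.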 The list shows a part of the results.
# Assay: Components of the Cytosolic LPS Sensing Pathway: Gene Identification via Genome-wide siRNA Screen;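 further: robust z of the log signal after scaling to non-targeting control siRNA wells of the plate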
# Conditions: RAW264.7 macrophages, IL-1a HTRF, actives lie on both sides, screened at 100 nM (by protocol), cells primed 5 h with Pam3CSK4 first
# Method in brief: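 Three distinct siRNAs per gene were tested singly at 100 nM in RAW264.7 macrophages. Following Pam3CSK4 priming and 24 hour LipidA transfection, IL-1a secretion was read by HTRF.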
row,Sequence,z-score
1,CGUGCCAUAAUACACUAUCTT against Gng5,active: 2.79
2,CGUGUGAAGUAAAGAUGUUTT against Mrpl57,inactive: 0.212
3,GGAAAACCACUACAAGUUCTT against Steap3,inactive: 1.54
4,CCAUGAAGAUUUCUCGUUUTT against Ifrd1,inactive: 0.232
5,AGGAGCUCCUCAAAGCUCUTT against Zfp395,inactive: 0.665
6,GCGAAAGUCUACAAAAGAGTT against Thrap3,inactive: -0.15
7,GCCUUAACUCUUCUGGGAGTT against Stam,inactive: 0.537
8,CCGUAUUGUCACUUGUGGGTT against Arpc1a,inactive: 0.479
9,GGGAGGAGGACAACAAGUATT against Smap1,inactive: -1.26
10,CCAAUGAUAGACUUUAUACTT against Adgrv1,inactive: -0.252
11,GGAGGUCACCUUCUCAAACTT against Mrgprf,inactive: 0.374
12,GCUACAUGGGCCUCACAUATT against Spaca4,inactive: -0.199
13,GCUGUCACGAGGAAUCAUGTT against Scarf2,inactive: -0.368
14,GGCUACCACAUCUGAUAACTT against Serpind1,inactive: 0.314
15,CCAAGAAAUUGCACUGGGATT against A130050O07Rik,inactive: 0.781
16,GGAAUGUACCCAUAAAAGUTT against Nudt19,inactive: 0.988
17,GGCUCUGUGCAGACAUUUCTT against Pop5,inactive: -1.51
18,GGUGCAAGGAAAAACAAAATT against Ggh,inactive: -1.89
19,GGAGCCACAUGAAACACUATT against Reep6,inactive: -1.09
20,GGCCAGAAAUGUACAUACATT against Map4k5,inactive: -0.297
21,UAUCCACUUUACCUUUGUATT against Zscan26,inactive: 1.29
22,GGCCAAGAAGGAAAGGGAUTT against Atp1a1,inactive: 0.106
23,CCUAGAUUCGGACAAGGAUTT against Kctd5,inactive: -0.424
24,GGGAUGUAUUAGUGAAAGGTT against Dmpk,inactive: 0.368
25,GCCGUAUGAAUCCUACACATT against Vps26b,inactive: 0.201
26,GGCUCUUGCCAGAAUUAACTT against Emc6,inactive: 0.289
27,CGAGUACGCUCUGCUAUUCTT against Ptgds,inactive: 0.265

row,Sequence,z-score
1,GGCAGUCUUCUAGUAAGAATT against Cbr4,inactive: -0.502
2,GGUUACGUCUACGACUGGATT against Scml2,inactive: -1.18
3,GCUGCCAAAAGAUCUCGGGTT against Nfil3,inactive: 0.24
4,GCUGUUUCGGAUUUGGAGATT against Mpc2,inactive: -0.579
5,GCUAAGGACUGAGGUGCUUTT against Sf3b6,inactive: -1.7
6,CGAUGUAUUGUUAUUGCCATT against Lrp10,inactive: 0.598
7,GGCAGAGACACAAGUCACUTT against Adam3,inactive: -0.156
8,GGUAAAAAGUUUUGGGAAATT against Pum1,inactive: -0.0523
9,GGGUCGUUGGCAUCAUCAATT against Rps6kl1,inactive: -0.362
10,GGUUUUCACUGUGAAUUUGTT against Plscr1,inactive: 1.17
11,GCUGUACGAGCCCUGAUGATT against Cldn18,inactive: -0.62
12,GGAAAGUAUGUCCAUUCUATT against Tnfrsf1a,inactive: 0.429
13,CGUCCAUAAGCAGGUGUGUTT against Cops6,inactive: -0.0356
14,GGAAGAAACUGGCUACAAATT against Nudt5,inactive: -1.04
15,GGGUUCUUUCCAAAGUUACTT against Dennd5b,inactive: -0.154
16,CGACCAAUGGGCGUAAUCATT against Obox3,inactive: 1.25
17,GGACUCAAAAAAGCAACGUTT against Tpbpb,inactive: -0.467
18,CCCAACAAAUACCACUACATT against Usp20,inactive: -1.39
19,GGCUGCUUGGUGUCAUUUUTT against Mrps34,inactive: -0.266
20,GGGAAUGCAAGACUUCAAUTT against Cpn1,inactive: -0.166
21,CCUUCUAAAUACUGAUUUGTT against Ugt2b38,inactive: 0.699
22,CCUUCGUGUUCACUUUAAGTT against Rpl17,inactive: -1.5
23,CCAAGUCAAGUAACCCUUATT against Fgf4,inactive: 0.198
24,CCAUCAAGCGAUUUGUGGUTT against Rnf103,inactive: -0.156
25,GGGAAUGGUUCGAGGAAAATT against Trex1,inactive: -0.536
26,GGAGAAGUUUAGUGAAGAATT against Rmdn2,active: -2.48
27,GCCACGACAACAAAUCCCATT against Lbr,active: -2.62

# Two records drawn at random from the list so far, as already listed:
row,Sequence,z-score
13,CGUCCAUAAGCAGGUGUGUTT against Cops6,inactive: -0.0356
15,GGGUUCUUUCCAAAGUUACTT against Dennd5b,inactive: -0.154
